PubChem BioAssay AID720710 | VTT Finland, 2013
The whole screen tested about 1,380 reagents; shown is a part drawn at random. 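One array per condition without replicates; hydroxyurea arrays received 2 mM for 16 h plus 3 h recovery.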 The numbers tell different reagents against one gene apart. Not all columns of the deposit are shown.

- Aim: 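siRNAs sensitising CCNE1-overexpressing U-2 OS cells to replication stress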 (primary screen)
- Cells: human U-2 OS bone cancer cells, parental and a cyclin E (CCNE1) overexpressing line
- Knock-down reagent: single siRNA against human genes, 1 µM siRNA in the printed spot mix
- Duration: 67 h
- Conditions: half the arrays: hydroxyurea 2 mM for 16 h, then 3 h recovery; other arrays untreated
- Read-out: 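EdU click signal imaged per DAPI-stained nucleus at 67 h; each spot divided by its subgrid median, then z-scored relative to non-targeting control spots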
- Scale: EdU z-score, cyclin E line, hydroxyurea and EdU z-score, parental, hydroxyurea: higher = more DNA synthesis than non-targeting controls

Silencing of NSD2 (nuclear receptor binding SET domain protein 2) #1 came out at: EdU z-score, cyclin E line, hydroxyurea 1.48; EdU z-score, parental, hydroxyurea -0.832. Depletion of NSD2 (nuclear receptor binding SET domain protein 2) #2 gave: EdU z-score, cyclin E line, hydroxyurea 2.09; EdU z-score, parental, hydroxyurea -0.0346. Against H2AC20 (H2A clustered histone 20) #1, the entry reads EdU z-score, cyclin E line, hydroxyurea -0.937; EdU z-score, parental, hydroxyurea -0.867. H2AC20 (H2A clustered histone 20) #2 gave EdU z-score, cyclin E line, hydroxyurea -0.13; EdU z-score, parental, hydroxyurea -0.813. After knock-down of HUS1B (HUS1 checkpoint clamp component B) #1, the record shows EdU z-score, cyclin E line, hydroxyurea 0.0786; EdU z-score, parental, hydroxyurea -1.14. With knock-down of HUS1B (HUS1 checkpoint clamp component B) #2 the results were EdU z-score, cyclin E line, hydroxyurea 0.932; EdU z-score, parental, hydroxyurea 1.93.

After knock-down of TDG (thymine DNA glycosylase) #1, the record shows EdU z-score, cyclin E line, hydroxyurea -0.825; EdU z-score, parental, hydroxyurea -0.897. TDG (thymine DNA glycosylase) #2 showed EdU z-score, cyclin E line, hydroxyurea -0.074; EdU z-score, parental, hydroxyurea 3.6. H1-10 (H1.10 linker histone) #1 gave EdU z-score, cyclin E line, hydroxyurea -1.14; EdU z-score, parental, hydroxyurea -0.481. For H1-10 (H1.10 linker histone) #2, the entry reads EdU z-score, cyclin E line, hydroxyurea -0.0656; EdU z-score, parental, hydroxyurea 0.81. Depletion of H4C11 (H4 clustered histone 11) #1 resulted in: EdU z-score, cyclin E line, hydroxyurea 0.262; EdU z-score, parental, hydroxyurea 0.0657. H4C11 (H4 clustered histone 11) #2 showed EdU z-score, cyclin E line, hydroxyurea 0.956; EdU z-score, parental, hydroxyurea 3.04.

Depletion of SFN (stratifin) #1 resulted in: EdU z-score, cyclin E line, hydroxyurea -0.401; EdU z-score, parental, hydroxyurea -0.255. Depletion of SFN (stratifin) #2 gave: EdU z-score, cyclin E line, hydroxyurea 0.291; EdU z-score, parental, hydroxyurea 0.359. DNMT3B (DNA methyltransferase 3 beta) #1 scored EdU z-score, cyclin E line, hydroxyurea -1.94; EdU z-score, parental, hydroxyurea -0.458. Silencing of DNMT3B (DNA methyltransferase 3 beta) #2 gave: EdU z-score, cyclin E line, hydroxyurea -0.254; EdU z-score, parental, hydroxyurea 1.44. Against MCM4 (minichromosome maintenance complex component 4) #1 the deposit lists EdU z-score, cyclin E line, hydroxyurea -0.656; EdU z-score, parental, hydroxyurea -0.992. Knock-down of MCM4 (minichromosome maintenance complex component 4) #2 came out at: EdU z-score, cyclin E line, hydroxyurea 0.888; EdU z-score, parental, hydroxyurea 1.46.

Silencing of GLI1 (GLI family zinc finger 1) #1 gave: EdU z-score, cyclin E line, hydroxyurea -0.728; EdU z-score, parental, hydroxyurea -0.316. Against GLI1 (GLI family zinc finger 1) #2 the deposit lists EdU z-score, cyclin E line, hydroxyurea 1.1; EdU z-score, parental, hydroxyurea 1.58. CHAF1A (chromatin assembly factor 1 subunit A) #1 showed EdU z-score, cyclin E line, hydroxyurea 0.231; EdU z-score, parental, hydroxyurea -1.25. With knock-down of CHAF1A (chromatin assembly factor 1 subunit A) #2 the results were EdU z-score, cyclin E line, hydroxyurea 0.856; EdU z-score, parental, hydroxyurea 1.38. For SEM1 (SEM1 26S proteasome subunit) #1, the values are EdU z-score, cyclin E line, hydroxyurea -1.42; EdU z-score, parental, hydroxyurea -2.74. SEM1 (SEM1 26S proteasome subunit) #2 scored EdU z-score, cyclin E line, hydroxyurea -0.0895; EdU z-score, parental, hydroxyurea -0.141.

Knock-down of POLI (DNA polymerase iota) #1 resulted in: EdU z-score, cyclin E line, hydroxyurea -1.03; EdU z-score, parental, hydroxyurea 0.419. POLI (DNA polymerase iota) #2 scored EdU z-score, cyclin E line, hydroxyurea -0.781; EdU z-score, parental, hydroxyurea 4.98. RAD23B (RAD23 nucleotide excision repair protein B) #1 showed EdU z-score, cyclin E line, hydroxyurea -1.17; EdU z-score, parental, hydroxyurea -3.49. RAD23B (RAD23 nucleotide excision repair protein B) #2 scored EdU z-score, cyclin E line, hydroxyurea -0.342; EdU z-score, parental, hydroxyurea 3.69. For TYMS (thymidylate synthetase) #1, the values are EdU z-score, cyclin E line, hydroxyurea 0.714; EdU z-score, parental, hydroxyurea -1.64. Silencing of TYMS (thymidylate synthetase) #2 came out at: EdU z-score, cyclin E line, hydroxyurea 1.1; EdU z-score, parental, hydroxyurea 0.802.

After knock-down of MIS12 (MIS12 kinetochore complex component) #1, the record shows EdU z-score, cyclin E line, hydroxyurea 0.0501; EdU z-score, parental, hydroxyurea -0.518. Depletion of MIS12 (MIS12 kinetochore complex component) #2 resulted in: EdU z-score, cyclin E line, hydroxyurea 0.459; EdU z-score, parental, hydroxyurea 1.74.
